Publication PMC5829251, “NAD^+ analog reveals PARP-1 substrate-blocking mechanism and allosteric communication from catalytic center to DNA-binding domains” (Nature Communications, 2018)
For at least one entry, the source does not settle the construct or the ends of the probe. At least one verdict was read from the data and is not stated in words by the source.

Protein sequences, listed by entry. Tags and fused reporters are not part of them.
UniProt P09874, whole entry: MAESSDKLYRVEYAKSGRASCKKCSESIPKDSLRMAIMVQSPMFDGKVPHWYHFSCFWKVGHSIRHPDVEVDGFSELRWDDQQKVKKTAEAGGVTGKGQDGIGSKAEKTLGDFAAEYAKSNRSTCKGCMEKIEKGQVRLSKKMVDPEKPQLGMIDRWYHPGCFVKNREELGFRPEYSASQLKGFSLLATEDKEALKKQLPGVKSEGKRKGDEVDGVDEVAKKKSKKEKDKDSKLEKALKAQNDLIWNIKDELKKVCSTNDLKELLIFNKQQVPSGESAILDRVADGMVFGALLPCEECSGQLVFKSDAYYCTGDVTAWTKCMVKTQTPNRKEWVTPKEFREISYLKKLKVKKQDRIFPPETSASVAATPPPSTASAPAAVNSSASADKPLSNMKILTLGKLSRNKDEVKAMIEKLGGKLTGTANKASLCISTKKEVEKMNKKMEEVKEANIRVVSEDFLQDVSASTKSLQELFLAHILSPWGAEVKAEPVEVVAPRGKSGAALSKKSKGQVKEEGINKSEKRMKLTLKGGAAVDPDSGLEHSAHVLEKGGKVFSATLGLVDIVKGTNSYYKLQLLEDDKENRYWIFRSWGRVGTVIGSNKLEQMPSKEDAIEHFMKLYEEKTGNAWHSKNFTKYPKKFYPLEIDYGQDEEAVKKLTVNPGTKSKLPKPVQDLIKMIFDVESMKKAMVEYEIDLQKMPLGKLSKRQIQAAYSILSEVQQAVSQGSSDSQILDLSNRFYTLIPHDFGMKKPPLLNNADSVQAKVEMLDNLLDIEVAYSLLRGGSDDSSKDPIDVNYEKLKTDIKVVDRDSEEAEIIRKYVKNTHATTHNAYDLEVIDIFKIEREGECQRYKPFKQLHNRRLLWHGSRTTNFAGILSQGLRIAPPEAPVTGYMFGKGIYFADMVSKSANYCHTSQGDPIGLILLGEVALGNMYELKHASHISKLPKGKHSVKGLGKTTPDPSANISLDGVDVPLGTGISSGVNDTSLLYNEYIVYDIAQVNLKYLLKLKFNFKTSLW

Molecular target: PARP-1 WT (human) (UniProt P09874)
Test: NMR
Conditions: 20 uM BAD, BAD signal lost only with PARP-1 plus DNA (indirect read-out); recombinant protein; residues 1-1014; folded or branched DNA

“GCTGGCTTCGTAAGAAGCCAGCTCGCGGTCAGCTTGCTGACCGCG [dumbbell DNA with central 1-nt gap]”: binds.
